Laboratory results taken from PubChem BioAssay AID1347072 (National Center for Advancing Translational Sciences (NCATS), 2019).
The whole screen tested about 44,000 compounds, of which fewer than 10 were called active. This list was built around the results that the source calls inconclusive (neither active nor inactive); the mix of calls is not that of the screen. Calls come from the whole dose curve; as a rule, active = well fitted curve in the direction sought with a large enough effect; inconclusive = small, poorly fitted or top-dose-only effect, or another doubt; inactive = no such curve, though single readings can be large or run the other way. Potencies of inconclusive entries are doubtful fits and often do not repeat.
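Throughout, for activity, negative = inhibition: plate controls were full GALK reaction for no effect and reaction lacking GALK for full effect.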

Sequences of proteins named here, by UniProt entry; tags and fusion partners are left off. A change or cut given only in a name is not applied to a line headed by its entry.
UniProt P51570: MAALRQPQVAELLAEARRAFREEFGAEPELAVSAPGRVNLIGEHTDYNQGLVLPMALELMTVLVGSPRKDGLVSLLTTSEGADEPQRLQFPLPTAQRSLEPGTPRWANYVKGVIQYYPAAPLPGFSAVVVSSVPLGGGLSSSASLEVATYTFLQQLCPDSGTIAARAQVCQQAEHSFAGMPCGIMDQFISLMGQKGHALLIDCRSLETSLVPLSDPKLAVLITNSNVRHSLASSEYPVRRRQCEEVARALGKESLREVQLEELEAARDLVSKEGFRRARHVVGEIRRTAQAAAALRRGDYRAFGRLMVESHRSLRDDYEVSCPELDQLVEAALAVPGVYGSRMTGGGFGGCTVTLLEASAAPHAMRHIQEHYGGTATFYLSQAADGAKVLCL

What follows are compounds tested against Galactokinase (Homo sapiens) (UniProt P51570) (assay: qHTS Assay for Inhibitors of Human Galactokinase (GALK): NCGC Sytravon Library Screen). Settings: recombinant GALK, Kinase-Glo ATP luminescence, 1 h; series mostly up to 57.5 µM; activity, negative = inhibition: at the top concentration.
In short: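 Luminescent ATP-depletion readout (Kinase-Glo Plus) after 1 h room-temperature incubation of human GALK (5 nM) with galactose 100 µM and ATP 35 µM, pH 8.0 HEPES/Mg2+ buffer; compounds tested in qHTS format.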
`O=C(Nc1ccccc1Cl)C1CCN(c2nc3ccccc3[nH]2)CC1` was tested, and the Potency was inconclusive: 35.5 µM [inhibitor, partial curve, poor fit]. For `Cc1ccccc1-n1c(=O)c2c3c(sc2n2cnnc12)CCCC3`, the Potency was inconclusive: 1.41 µM [inhibitor, full curve, poor fit]. With `CCOC(=O)c1ccc(NC(=O)C(C)N(c2ccc(OCC)cc2)S(C)(=O)=O)cc1` (stereo not drawn) the Potency was inconclusive: 0.355 µM [inhibitor, full curve, poor fit]. With `Cc1cc(C)cc(NC(=O)CCS(=O)(=O)c2ccc3nc(C)sc3c2)c1` the Potency was inconclusive: 2.51 µM [inhibitor, full curve, poor fit]. `COc1cc(OC)c(C2Nc3ccccc3-c3nnc(SCc4ccccc4)nc3O2)cc1OC` (stereo not drawn) was tested, and the Potency was inconclusive: 0.501 µM [inhibitor, full curve, poor fit]. `COC(=O)c1sccc1S(=O)(=O)N1CCN(c2ccccc2OC)CC1` was tested, and the Potency was inconclusive: 1 µM [inhibitor, full curve, poor fit]. With `Cc1ccc(CNC(=O)c2nnc(Cc3cccc(F)c3)o2)cc1` the Potency was inconclusive: 7.08 µM [inhibitor, partial curve, poor fit]. For `Cc1ccc(Nc2nc(-c3ccccc3)nc3ccccc23)cc1`, the “activity, negative = inhibition” value was inactive: 1.51%. For `Cc1ccc(S(=O)(=O)N(CC(=O)Nc2ccc(F)cc2F)Cc2ccc(F)cc2)cc1`, the “activity, negative = inhibition” value was inactive: -4%. `O=C(Nc1ccc(OC(F)(F)F)cc1)c1cc2c(=O)n3ccccc3nc2s1` was tested, and the Potency was inconclusive: 39.8 µM [inhibitor, partial curve, poor fit]. In the case of `Cc1ccc(-n2cnc3cc(C(=O)NC4CCCCCC4)ccc32)c(C)c1`, the Potency is reported as inconclusive: 3.98 µM [inhibitor, partial curve, poor fit]. With `CCCCn1c(=N)c(S(=O)(=O)c2ccc(C)cc2)cc2c(=O)n3cc(C)ccc3nc21` the Potency was inconclusive: 0.251 µM [inhibitor, full curve, poor fit]. For `Cc1nc2scc(C)n2c(=O)c1S(=O)(=O)Nc1ccc(N2CCN(S(C)(=O)=O)CC2)cc1`, the “activity, negative = inhibition” value was inactive: -0.47%. In the case of `N#Cc1ccc(S(=O)(=O)N2CCC(Oc3cccc(C(F)(F)F)c3)CC2)cc1`, the Potency is reported as inconclusive: 39.8 µM [inhibitor, partial curve, poor fit]. With `Cc1ccc(C)c(NC(=O)CSc2nc(-c3ccccc3)c(C#N)c(=O)[nH]2)c1` the Potency was inconclusive: 28.2 µM [inhibitor, partial curve, poor fit]. `COCc1cc(C)nc2sc(C(=O)Nc3ccccc3O)c(N)c12` was tested, and the Potency was inconclusive: 39.8 µM [inhibitor, single point]. With `COc1cc2nc(NC(=O)c3ccc(S(=O)(=O)N4CCc5ccccc54)cc3)sc2cc1OC` the Potency was inconclusive: 3.55 µM [inhibitor, full curve, poor fit]. `CCc1ccc(CNC(=O)CSc2cc(=O)n(CC)c3ccccc23)cc1` was tested, and the “activity, negative = inhibition” value was inactive: 9.38%. For `Cc1cccc(C)c1NS(=O)(=O)c1ccc2c(c1)[C@H]1C=CC[C@H]1[C@@H](c1ccc(Cl)cc1)N2`, the Potency was inconclusive: 0.126 µM [inhibitor, full curve, poor fit]. In the case of `CCn1c(CC2C(=O)Nc3ccccc32)nc2ccccc2c1=O` (stereo not drawn), the Potency is reported as inconclusive: 39.8 µM [inhibitor, partial curve, poor fit]. In the case of `COCCCn1c(=O)c2sccc2n2c(CCCC(=O)NC3CCC(C)CC3)nnc12` (stereo not drawn), the Potency is reported as inconclusive: 0.631 µM [inhibitor, partial curve, poor fit]. In the case of `O=C(Nc1nc2n(n1)C(c1ccccc1)C=C(c1ccc(Cl)cc1)N2)c1ccco1` (stereo not drawn), the “activity, negative = inhibition” value is reported as inactive: 2.72%. For `COc1ccccc1N1CCN(S(=O)(=O)c2ccc3c(c2)oc(=O)n3C)CC1`, the “activity, negative = inhibition” value was inactive: 7.9%. In the case of `Cc1cccn2cc(-c3cccc(NS(=O)(=O)c4ccc(Cl)c(Cl)c4)c3)nc12`, the Potency is reported as inconclusive: 35.5 µM [inhibitor, single point]. For `CCC(=O)N1CCc2cc(CNS(=O)(=O)c3cc(Cl)ccc3OC)ccc21`, the Potency was inconclusive: 39.8 µM [inhibitor, partial curve, poor fit]. In the case of `Cc1ccc(OCCn2c(COc3ccc(Cl)cc3)nc3ccccc32)cc1`, the “activity, negative = inhibition” value is reported as inactive: 6.66%. In the case of `CC1=C(c2ccc(C)c(C)c2)S(=O)(=O)N=C1N1CCN(c2cccc(C(F)(F)F)c2)CC1`, the Potency is reported as inconclusive: 1 µM [inhibitor, full curve, poor fit]. `Cc1cccc(N2CCN(C(=O)Nc3ccc(F)cc3)CC2C)c1` (stereo not drawn) was tested, and the “activity, negative = inhibition” value was inactive: -1.42%. In the case of `COc1cccc(NC(=O)CN2C(=O)CC(c3ccco3)Sc3ccccc32)c1` (stereo not drawn), the Potency is reported as inconclusive: 0.891 µM [inhibitor, partial curve, poor fit]. With `Cc1cccc(C)c1NC(=O)C(=O)NCC(c1cccnc1)N1CCc2ccccc21` (stereo not drawn) the Potency was inconclusive: 7.08 µM [inhibitor, partial curve, poor fit]. With `CCC(C)Cn1c(COc2ccc(OC)cc2)nc2ccccc21` (stereo not drawn) the Potency was inconclusive: 39.8 µM [inhibitor, partial curve, poor fit]. For `CCOC(=O)c1ccc(NC(=O)Nc2cccc(OCc3cc(=O)n4ccc(C)cc4n3)c2)cc1`, the Potency was inconclusive: 39.8 µM [inhibitor, partial curve, poor fit]. For `COc1cccc(-c2cc(C(F)(F)F)n3nc(-c4ccc(C)cc4)cc3n2)c1`, the “activity, negative = inhibition” value was inactive: 2.33%. In the case of `O=S(=O)(Nc1ccc(Br)cc1F)c1ccc2nc(-c3ccccc3)[nH]c2c1`, the Potency is reported as inconclusive: 28.2 µM [inhibitor, partial curve, poor fit]. In the case of `Cc1ccc(NC(=O)CCn2cccn2)cc1Cl`, the Potency is reported as inconclusive: 0.251 µM [inhibitor, full curve, poor fit]. With `Cc1cc(OCC(=O)NCC2(N3CCN(C)CC3)CCCCC2)cc(C)c1Cl` the “activity, negative = inhibition” value was inactive: 6.2%. For `COc1ccccc1Oc1nc2c(c(=O)n(C)c(=O)n2C)n1Cc1cccc(Br)c1`, the Potency was inconclusive: 0.891 µM [inhibitor, full curve, poor fit]. For `CCOC(=O)c1c(C)[nH]c(CCC(=O)NCCCN2CCN(c3cccc(Cl)c3)CC2)c1C`, the Potency was inconclusive: 31.6 µM [inhibitor, partial curve, poor fit].
